PubChem BioAssay AID602196 – INSERM – 2012
Screen: 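Knock-downs that protect lung cancer cells from cisplatin or sensitise them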. Cell system: human A549 lung cancer cells. Reagents: siRNA pair against human genes. Time to read-out: 48 h transfection before cisplatin; time from cisplatin to read-out not stated. Challenge: cisplatin at a dose killing half of control-siRNA cells; exact dose and duration not given. Read-out: 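Cisplatin cell death as a shift from the 50% death seen with control siRNA; siRNAs toxic or growth-blocking alone scored 0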. Direction: two-siRNA summed score (-2 to +2): higher = both siRNAs protect from cisplatin killing; -2 means both sensitise. Rule for the call: 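siRNAs harmful alone (LDH or WST-1) get 0; others get +1 for less and -1 for more cisplatin killing; genes are active when the two siRNAs give the same sign, summing to ±2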. Meaning of the calls: active = both siRNAs shift cisplatin killing the same way; inactive = no consistent shift, or siRNA harmful alone.
The deposit covers about 23,000 reagents; shown is a random part of them. 455 of them (2%) were called active. 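Active includes both protection and sensitisation; some change values fall well beyond the stated -50 to +50 range.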 Reagents against one gene are numbered here. Further read-outs or replicates are left out here. The record does not give: the amount of reagent.

ARC → two-siRNA summed score (-2 to +2): 1; Call: inactive
TAF1C → two-siRNA summed score (-2 to +2): 0; Call: inactive
SIGMAR1 → two-siRNA summed score (-2 to +2): -1; Call: inactive
MAGEC1 → two-siRNA summed score (-2 to +2): 0; Call: inactive
SEMA4B → two-siRNA summed score (-2 to +2): 0; Call: inactive
HDIP1 → two-siRNA summed score (-2 to +2): 0; Call: inactive
LOC441296 → two-siRNA summed score (-2 to +2): 0; Call: inactive
C6orf136 → two-siRNA summed score (-2 to +2): 0; Call: inactive
ENSA → two-siRNA summed score (-2 to +2): 0; Call: inactive
LOC138652 → two-siRNA summed score (-2 to +2): 0; Call: inactive
NPLOC4 → two-siRNA summed score (-2 to +2): 0; Call: inactive
MAP1LC3BP1 → two-siRNA summed score (-2 to +2): 1; Call: inactive
BEST3 #1 → two-siRNA summed score (-2 to +2): 0; Call: inactive
BEST3 #2 → two-siRNA summed score (-2 to +2): 0; Call: inactive
LOC441023 → two-siRNA summed score (-2 to +2): 0; Call: inactive
DACT3 → two-siRNA summed score (-2 to +2): 0; Call: inactive
LOC400966 → two-siRNA summed score (-2 to +2): 0; Call: inactive
LINC01548 → two-siRNA summed score (-2 to +2): 0; Call: inactive
LOC387770 → two-siRNA summed score (-2 to +2): 0; Call: inactive
SLC38A10 → two-siRNA summed score (-2 to +2): 0; Call: inactive
RRP1B → two-siRNA summed score (-2 to +2): 0; Call: inactive
SLC36A2 → two-siRNA summed score (-2 to +2): 0; Call: inactive
TMEM198 → two-siRNA summed score (-2 to +2): 0; Call: inactive
MSH6 → two-siRNA summed score (-2 to +2): 2; Call: active
SYN1 → two-siRNA summed score (-2 to +2): 0; Call: inactive
MYPN → two-siRNA summed score (-2 to +2): 0; Call: inactive
COQ9 → two-siRNA summed score (-2 to +2): 0; Call: inactive
CLEC3A → two-siRNA summed score (-2 to +2): 0; Call: inactive
RANBP3L → two-siRNA summed score (-2 to +2): 0; Call: inactive
LOC400621 → two-siRNA summed score (-2 to +2): 0; Call: inactive
IL17C → two-siRNA summed score (-2 to +2): -1; Call: inactive

A portion from the list above, as a working copy:
TAF1C → two-siRNA summed score (-2 to +2): 0; Call: inactive
SIGMAR1 → two-siRNA summed score (-2 to +2): -1; Call: inactive
MAGEC1 → two-siRNA summed score (-2 to +2): 0; Call: inactive
SEMA4B → two-siRNA summed score (-2 to +2): 0; Call: inactive
